Counter-ions that a name gives are not always drawn. The list shows a part of the results. Repeats in this data set agree poorly, so a single value says little.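 Human kidney-derived cells stably carry a construct in which eight TEAD-binding elements drive luciferase, measured by luminescence in a drug-repurposing library screen. A hit is any compound whose signal exceeds the plate mean by more than five robust Z scores.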

The test deals with HEK293A TEAD-LUC reporter. The test can be described thus: TEAD-luciferase reporter activity (YAP activation), robust Z score vs plate; higher = stronger YAP/TEAD activation. To be noted: 24 h.

As for `CCC(=O)O[C@@H]1CC(=O)O[C@H](C)C/C=C/C=C/[C@H](O[C@H]2CC[C@H](N(C)C)[C@@H](C)O2)[C@H](C)C[C@H](CC=O)[C@H](O[C@@H]2O[C@H](C)[C@@H](O[C@H]3C[C@@](C)(O)[C@@H](O)[C@H](C)O3)[C@H](N(C)C)[C@H]2O)[C@H]1OC`, the TEAD-luciferase reporter activity (compound concentration: 200 nM) is inactive: -1.59, the TEAD-luciferase reporter activity (compound concentration: 2 uM) was inactive: 0.709 and the TEAD-luciferase reporter activity (compound concentration: 10 uM) is inactive: 0.117.
The matching figures for `CCCS(=O)c1ccc2[nH]c(NC(=O)OC)nc2c1` (configuration not stated): inactive: -0.333, inactive: -1.2 and inactive: -1.66.
As to `CN(Cc1cc(Br)cc(Br)c1N)C1CCCCC1` [Bromhexine HCl], the TEAD-luciferase reporter activity (compound concentration: 200 nM) is inactive: 0.704 and the TEAD-luciferase reporter activity (compound concentration: 10 uM) was inactive: -2.12.
For `CN(Cc1cc(Br)cc(Br)c1N)C1CCCCC1` [Bromhexine hydrochloride], for the setting “compound concentration: 2 uM”, the TEAD-luciferase reporter activity was inactive: -2.33.
On to `CC(C)n1c(=O)n(C(=O)NCC2CCN(CC3(O)CCOCC3)CC2)c2ccccc21`, for which the TEAD-luciferase reporter activity was inactive: -0.522 (compound concentration: 200 nM), inactive: -0.305 (compound concentration: 2 uM) and inactive: 1.14 (compound concentration: 10 uM).
The matching figures for `OC1(c2ccc(Cl)c(C(F)(F)F)c2)CCN(CCCC(c2ccc(F)cc2)c2ccc(F)cc2)CC1` [penfluridol]: inactive: -0.733, inactive: 1.94 and inactive: 2.58.
As to `NCCC(=O)N1CCCC2(Cc3ccccc3CN2C(=O)C2CCCC2)C1` (configuration not stated), the TEAD-luciferase reporter activity (compound concentration: 200 nM) was inactive: -0.682 and the TEAD-luciferase reporter activity (compound concentration: 10 uM) is inactive: -0.191.
Turning to `CCOC(=O)[C@H](CCc1ccccc1)N[C@H]1CS[C@H](c2cccs2)CN(CC(=O)O)C1=O` [temocapril], the TEAD-luciferase reporter activity is, setting by setting: (compound concentration: 200 nM) inactive: -0.0194; (compound concentration: 2 uM) inactive: -0.212; (compound concentration: 10 uM) inactive: 3.65.
As to `COC(=O)C1=C(C)NC(C)=C(C(=O)OCC(C)(C)CN(C)Cc2ccccc2)C1c1cc([N+](=O)[O-])ccc1F` (configuration not stated), the TEAD-luciferase reporter activity was active: 5.42 (compound concentration: 200 nM), inactive: 0.366 (compound concentration: 2 uM) and inactive: -0.6 (compound concentration: 10 uM).
As to `CC(C)Oc1cccc(CC(=O)N2CCC[C@](CC[N+]34CCC(c5ccccc5)(CC3)CC4)(c3ccc(Cl)c(Cl)c3)C2)c1`, the TEAD-luciferase reporter activity is inactive: -1.6 (compound concentration: 200 nM), inactive: -1.31 (compound concentration: 2 uM) and inactive: 2.67 (compound concentration: 10 uM).
On to `Cc1cccc(C)c1NC(=O)c1ccc(N)cc1` [Ameltolide], for which the TEAD-luciferase reporter activity runs as follows: (compound concentration: 200 nM) inactive: -1.12; (compound concentration: 2 uM) inactive: -1.91; (compound concentration: 10 uM) inactive: 1.62.
The matching figures for `CN(c1ccc(/C=C/C[C@H](NC(=O)c2ccccc2)C(=O)O)cc1)c1ncccn1`: inactive: -0.703, inactive: 0.226 and inactive: 0.946.
The matching figures for `CCCCCCCCCCCCCCCCCCOC1=C(O)[C@@H]([C@@H](O)CO)OC1=O`: inactive: -0.274, inactive: 0.0171 and inactive: -0.173.
For `CN1CCCN=C1COC(=O)C(O)(c1ccccc1)C1CCCCC1` (configuration not stated) [Oxyphencyclimine hydrochloride], the TEAD-luciferase reporter activity (compound concentration: 2 uM) was inactive: 0.591.
Take `CN1CCCN=C1COC(=O)C(O)(c1ccccc1)C1CCCCC1` (configuration not stated): the TEAD-luciferase reporter activity is, setting by setting: (compound concentration: 200 nM) inactive: -1.8; (compound concentration: 10 uM) inactive: 0.538.
Regarding `O=C(Nc1c[nH]nc1-c1nc2cc(CN3CCOCC3)ccc2[nH]1)NC1CC1`, the TEAD-luciferase reporter activity runs as follows: (compound concentration: 200 nM) inactive: -0.682; (compound concentration: 2 uM) inactive: 1.98; (compound concentration: 10 uM) inactive: -2.57.
The matching figures for `COc1cc2ncnc(Nc3ccc(F)c(Cl)c3)c2cc1NC(=O)/C=C/CN1CCCCC1` [dacomitinib]: inactive: -0.613, inactive: -0.983 and inactive: -0.0359.
As for `CN(Cc1ccc(S(=O)(=O)N2CCOCC2)cc1)c1ccc2c3c(cccc13)C(=N)N2` [Metesind glucuronate], the TEAD-luciferase reporter activity by setting is: (compound concentration: 200 nM) inactive: -0.815; (compound concentration: 2 uM) inactive: 0.834; (compound concentration: 10 uM) inactive: -0.66.
Turning to `C=C1CC[C@H]2[C@H](CN)[C@@H]([C@@]3(C)CC[C@H](O)C[C@@H]3CO)CC[C@]12C` [Rosiptor], the TEAD-luciferase reporter activity is inactive: -0.611 (compound concentration: 200 nM) and inactive: 1.11 (compound concentration: 10 uM).
`NCC(=O)N1C[C@H](NC(=O)c2ccccc2)C[C@H]1C(=O)O` [danegaptide]: the TEAD-luciferase reporter activity was inactive: -0.934 (compound concentration: 200 nM), inactive: -0.887 (compound concentration: 2 uM) and inactive: 0.788 (compound concentration: 10 uM).
The matching figures for `CCN(CC)CCCN1C(=O)c2c(ccc3nc(-c4ccccc4)[nH]c23)C(C)(C)C1=O`: inactive: -0.896, inactive: 1.97 and inactive: 2.6.
The matching figures for `Cn1nnc2ccc([C@@H](c3ccc(Cl)cc3)n3cncn3)cc21`: inactive: -0.352, inactive: -0.859 and inactive: 2.83.
In the same order, the values of `CN(C)CCc1c[nH]c2ccc(C[C@@H]3COC(=O)N3)cc12` [zolmitriptan] are inactive: -2.05, inactive: 0.199 and inactive: 0.538.
For `O=C(NCC(F)F)c1ccc(-n2[nH]c3c(nnc4c(F)cccc43)c2=O)cc1`, the TEAD-luciferase reporter activity by setting is: (compound concentration: 200 nM) inactive: 4.76; (compound concentration: 2 uM) inactive: -1.12; (compound concentration: 10 uM) inactive: 2.49.
For the compound `CCOC(=O)C(C)(CC)Oc1ccc(Cc2ccc(Cl)cc2)cc1` (configuration not stated), the TEAD-luciferase reporter activity was inactive: 0.292 (compound concentration: 200 nM), inactive: -0.722 (compound concentration: 2 uM) and inactive: -0.831 (compound concentration: 10 uM).
